# Source: US20150147316A1
# Results are given in words; binding and its absence hold for the method and conditions named. Binding can be weak; no strength is given.
# B1: h2H12 antibody (2H12 HILG) (antibody, V domains shown)
# VH: QVQLVQSGAEVKKPGASVKVSCKASGYTFTNYDINWVRQAPGQGLEWIGWIYPGDGSTKYNEKFKAKATLTADTSTSTAYMELRSLRSDDTAVYYCASGYEDAMDYWGQGTTVTVSS
# VL: DIQMTQSPSSLSASVGDRVTINCKASQDINSYLSWFQQKPGKAPKTLIYRANRLVDGVPSRFSGSGSGQDYTLTISSLQPEDFATYYCLQYDEFPLTFGGGTKVEIK
# Target: cynomolgus CD33 (cynomolgus)
# Assay: flow cytometry on cells expressing cyno CD33
binder,measurement,value
B1,binding,binds
